# This is one part of the list. Most of these values are background signal.
# Legend:
# Test in all cases: fluorescence intensity of antibody binding to polysaccharide-coupled beads; higher = stronger binding
# [1] = molecular target: pneumococcal polysaccharide Pn2
# [2] = molecular target: pneumococcal polysaccharide Pn20A
# [3] = molecular target: pneumococcal polysaccharide Pn20B
# [4] = molecular target: pneumococcal polysaccharide Pn21
# [5] = molecular target: pneumococcal polysaccharide Pn22A
# [6] = molecular target: pneumococcal polysaccharide Pn22F
# [7] = molecular target: pneumococcal polysaccharide Pn23A
# [8] = molecular target: pneumococcal polysaccharide Pn23B
# [9] = molecular target: pneumococcal polysaccharide Pn23F
# [10] = molecular target: pneumococcal polysaccharide Pn24A
# [11] = molecular target: pneumococcal polysaccharide Pn24B
# [12] = molecular target: pneumococcal polysaccharide Pn24F
# [13] = molecular target: pneumococcal polysaccharide Pn25A
# [14] = molecular target: pneumococcal polysaccharide Pn25F
# [15] = molecular target: pneumococcal polysaccharide Pn27
# [16] = molecular target: pneumococcal polysaccharide Pn28A
# [17] = molecular target: pneumococcal polysaccharide Pn28F
# [18] = molecular target: pneumococcal polysaccharide Pn29
# [19] = molecular target: pneumococcal polysaccharide Pn3
# [20] = molecular target: pneumococcal polysaccharide Pn31
# [21] = molecular target: pneumococcal polysaccharide Pn32A
# [22] = molecular target: pneumococcal polysaccharide Pn32F
# [23] = molecular target: pneumococcal polysaccharide Pn33A
# [24] = molecular target: pneumococcal polysaccharide Pn33B
# [25] = antibody concentration 2337.65 ng/mL
# [26] = antibody concentration 12500 ng/mL
# [27] = antibody concentration 0.1 ng/mL
# [28] = antibody concentration 0.534724 ng/mL
# [29] = antibody concentration 2.8593 ng/mL
# [30] = antibody concentration 15.2894 ng/mL
# [31] = antibody concentration 81.7561 ng/mL
# [32] = antibody concentration 437.17 ng/mL
binder,measurement,setting,value
4-80.4 (protein) chain 1: QVQLQESGPGLVKPSETLSLTCAVSGGSFSSYWWSWIRQSPGKGLEWIGEISGNSGSTNYNPSLKSRVTISKDASKNQFSLKLSSVTAADTAVYYCARYKEYWGQGVLVTVSS chain 2: DVVMTQSPLSLLITPGQPASISCRSSQSLVHSNGNTYLSWYQQKPGQPPRRLLYEVSNRDSGVPDRFSGSGAGTDFTLKISRVEAEDVGVYYCGQGTHLPYSFGQGTKVEIK,fluorescence intensity,[1]; [25],23.5 MFI
same,fluorescence intensity,[1]; [26],27.5 MFI
same,fluorescence intensity,[2]; [27],24 MFI
same,fluorescence intensity,[2]; [28],22.5 MFI
same,fluorescence intensity,[2]; [29],23 MFI
same,fluorescence intensity,[2]; [30],22.5 MFI
same,fluorescence intensity,[2]; [31],24.5 MFI
same,fluorescence intensity,[2]; [32],23 MFI
same,fluorescence intensity,[2]; [25],26.5 MFI
same,fluorescence intensity,[2]; [26],62.2 MFI
same,fluorescence intensity,[3]; [27],23.5 MFI
same,fluorescence intensity,[3]; [28],23.8 MFI
same,fluorescence intensity,[3]; [29],24.5 MFI
same,fluorescence intensity,[3]; [30],24 MFI
same,fluorescence intensity,[3]; [31],23.5 MFI
same,fluorescence intensity,[3]; [32],23 MFI
same,fluorescence intensity,[3]; [25],25.5 MFI
same,fluorescence intensity,[3]; [26],32.2 MFI
same,fluorescence intensity,[4]; [27],18.5 MFI
same,fluorescence intensity,[4]; [28],19 MFI
same,fluorescence intensity,[4]; [29],19 MFI
same,fluorescence intensity,[4]; [30],18 MFI
same,fluorescence intensity,[4]; [31],18.5 MFI
same,fluorescence intensity,[4]; [32],18.5 MFI
same,fluorescence intensity,[4]; [25],19 MFI
same,fluorescence intensity,[4]; [26],21 MFI
same,fluorescence intensity,[5]; [27],21.8 MFI
same,fluorescence intensity,[5]; [28],21 MFI
same,fluorescence intensity,[5]; [29],20 MFI
same,fluorescence intensity,[5]; [30],20.2 MFI
same,fluorescence intensity,[5]; [31],22 MFI
same,fluorescence intensity,[5]; [32],21.5 MFI
same,fluorescence intensity,[5]; [25],24.5 MFI
same,fluorescence intensity,[5]; [26],39.5 MFI
same,fluorescence intensity,[6]; [27],33.8 MFI
same,fluorescence intensity,[6]; [28],26.2 MFI
same,fluorescence intensity,[6]; [29],29.2 MFI
same,fluorescence intensity,[6]; [30],31.5 MFI
same,fluorescence intensity,[6]; [31],28.2 MFI
same,fluorescence intensity,[6]; [32],31.5 MFI
same,fluorescence intensity,[6]; [25],30.5 MFI
same,fluorescence intensity,[6]; [26],37.2 MFI
same,fluorescence intensity,[7]; [27],25.5 MFI
same,fluorescence intensity,[7]; [28],26.5 MFI
same,fluorescence intensity,[7]; [29],27 MFI
same,fluorescence intensity,[7]; [30],25.5 MFI
same,fluorescence intensity,[7]; [31],25 MFI
same,fluorescence intensity,[7]; [32],28.8 MFI
same,fluorescence intensity,[7]; [25],38.5 MFI
same,fluorescence intensity,[7]; [26],64.2 MFI
same,fluorescence intensity,[8]; [27],31.5 MFI
same,fluorescence intensity,[8]; [28],29.8 MFI
same,fluorescence intensity,[8]; [29],29 MFI
same,fluorescence intensity,[8]; [30],29.8 MFI
same,fluorescence intensity,[8]; [31],32 MFI
same,fluorescence intensity,[8]; [32],31 MFI
same,fluorescence intensity,[8]; [25],31.5 MFI
same,fluorescence intensity,[8]; [26],37 MFI
same,fluorescence intensity,[9]; [27],16.8 MFI
same,fluorescence intensity,[9]; [28],18.5 MFI
same,fluorescence intensity,[9]; [29],20 MFI
same,fluorescence intensity,[9]; [30],18.5 MFI
same,fluorescence intensity,[9]; [31],19.5 MFI
same,fluorescence intensity,[9]; [32],17.5 MFI
same,fluorescence intensity,[9]; [25],19.5 MFI
same,fluorescence intensity,[9]; [26],27.2 MFI
same,fluorescence intensity,[10]; [27],16.5 MFI
same,fluorescence intensity,[10]; [28],14.8 MFI
same,fluorescence intensity,[10]; [29],15.5 MFI
same,fluorescence intensity,[10]; [30],16 MFI
same,fluorescence intensity,[10]; [31],17.5 MFI
same,fluorescence intensity,[10]; [32],15.5 MFI
same,fluorescence intensity,[10]; [25],16.2 MFI
same,fluorescence intensity,[10]; [26],21 MFI
same,fluorescence intensity,[11]; [27],20 MFI
same,fluorescence intensity,[11]; [28],18.5 MFI
same,fluorescence intensity,[11]; [29],17.5 MFI
same,fluorescence intensity,[11]; [30],19 MFI
same,fluorescence intensity,[11]; [31],18.5 MFI
same,fluorescence intensity,[11]; [32],20.2 MFI
same,fluorescence intensity,[11]; [25],21 MFI
same,fluorescence intensity,[11]; [26],32.2 MFI
same,fluorescence intensity,[12]; [27],20.2 MFI
same,fluorescence intensity,[12]; [28],20.5 MFI
same,fluorescence intensity,[12]; [29],18.2 MFI
same,fluorescence intensity,[12]; [30],20.8 MFI
same,fluorescence intensity,[12]; [31],16.8 MFI
same,fluorescence intensity,[12]; [32],19.5 MFI
same,fluorescence intensity,[12]; [25],25.5 MFI
same,fluorescence intensity,[12]; [26],31.5 MFI
same,fluorescence intensity,[13]; [27],23.8 MFI
same,fluorescence intensity,[13]; [28],23.5 MFI
same,fluorescence intensity,[13]; [29],23.5 MFI
same,fluorescence intensity,[13]; [30],23 MFI
same,fluorescence intensity,[13]; [31],26 MFI
same,fluorescence intensity,[13]; [32],25 MFI
same,fluorescence intensity,[13]; [25],26.5 MFI
same,fluorescence intensity,[13]; [26],32 MFI
same,fluorescence intensity,[14]; [27],29.5 MFI
same,fluorescence intensity,[14]; [28],30 MFI
same,fluorescence intensity,[14]; [29],30.5 MFI
same,fluorescence intensity,[14]; [30],29.5 MFI
same,fluorescence intensity,[14]; [31],31 MFI
same,fluorescence intensity,[14]; [32],30.5 MFI
same,fluorescence intensity,[14]; [25],31.5 MFI
same,fluorescence intensity,[14]; [26],37.5 MFI
same,fluorescence intensity,[15]; [27],16 MFI
same,fluorescence intensity,[15]; [28],17 MFI
same,fluorescence intensity,[15]; [29],17.8 MFI
same,fluorescence intensity,[15]; [30],17 MFI
same,fluorescence intensity,[15]; [31],15.5 MFI
same,fluorescence intensity,[15]; [32],18.2 MFI
same,fluorescence intensity,[15]; [25],21 MFI
same,fluorescence intensity,[15]; [26],62.5 MFI
same,fluorescence intensity,[16]; [27],27 MFI
same,fluorescence intensity,[16]; [28],27.5 MFI
same,fluorescence intensity,[16]; [29],28.5 MFI
same,fluorescence intensity,[16]; [30],27 MFI
same,fluorescence intensity,[16]; [31],27.5 MFI
same,fluorescence intensity,[16]; [32],27.2 MFI
same,fluorescence intensity,[16]; [25],28.2 MFI
same,fluorescence intensity,[16]; [26],33.5 MFI
same,fluorescence intensity,[17]; [27],28.5 MFI
same,fluorescence intensity,[17]; [28],29 MFI
same,fluorescence intensity,[17]; [29],30 MFI
same,fluorescence intensity,[17]; [30],29.2 MFI
same,fluorescence intensity,[17]; [31],31 MFI
same,fluorescence intensity,[17]; [32],29.8 MFI
same,fluorescence intensity,[17]; [25],31 MFI
same,fluorescence intensity,[17]; [26],50.2 MFI
same,fluorescence intensity,[18]; [27],15.5 MFI
same,fluorescence intensity,[18]; [28],16.8 MFI
same,fluorescence intensity,[18]; [29],16 MFI
same,fluorescence intensity,[18]; [30],14.5 MFI
same,fluorescence intensity,[18]; [31],17 MFI
same,fluorescence intensity,[18]; [32],17 MFI
same,fluorescence intensity,[18]; [25],18 MFI
same,fluorescence intensity,[18]; [26],42 MFI
same,fluorescence intensity,[19]; [27],13 MFI
same,fluorescence intensity,[19]; [28],13 MFI
same,fluorescence intensity,[19]; [29],14 MFI
same,fluorescence intensity,[19]; [30],16.5 MFI
same,fluorescence intensity,[19]; [31],40.2 MFI
same,fluorescence intensity,[19]; [32],214 MFI
same,fluorescence intensity,[19]; [25],808 MFI
same,fluorescence intensity,[19]; [26],4230 MFI
same,fluorescence intensity,[20]; [27],13.2 MFI
same,fluorescence intensity,[20]; [28],14 MFI
same,fluorescence intensity,[20]; [29],14 MFI
same,fluorescence intensity,[20]; [30],13.5 MFI
same,fluorescence intensity,[20]; [31],14.5 MFI
same,fluorescence intensity,[20]; [32],14 MFI
same,fluorescence intensity,[20]; [25],16.5 MFI
same,fluorescence intensity,[20]; [26],41.5 MFI
same,fluorescence intensity,[21]; [27],16.5 MFI
same,fluorescence intensity,[21]; [28],17 MFI
same,fluorescence intensity,[21]; [29],18.8 MFI
same,fluorescence intensity,[21]; [30],18 MFI
same,fluorescence intensity,[21]; [31],17 MFI
same,fluorescence intensity,[21]; [32],17.5 MFI
same,fluorescence intensity,[21]; [25],20.2 MFI
same,fluorescence intensity,[21]; [26],29.8 MFI
same,fluorescence intensity,[22]; [27],28 MFI
same,fluorescence intensity,[22]; [28],28.5 MFI
same,fluorescence intensity,[22]; [29],28 MFI
same,fluorescence intensity,[22]; [30],26.8 MFI
same,fluorescence intensity,[22]; [31],28.2 MFI
same,fluorescence intensity,[22]; [32],28 MFI
same,fluorescence intensity,[22]; [25],30.5 MFI
same,fluorescence intensity,[22]; [26],47.5 MFI
same,fluorescence intensity,[23]; [27],18.5 MFI
same,fluorescence intensity,[23]; [28],19 MFI
same,fluorescence intensity,[23]; [29],18.5 MFI
same,fluorescence intensity,[23]; [30],19 MFI
same,fluorescence intensity,[23]; [31],18 MFI
same,fluorescence intensity,[23]; [32],19 MFI
same,fluorescence intensity,[23]; [25],31.5 MFI
same,fluorescence intensity,[23]; [26],158 MFI
same,fluorescence intensity,[24]; [27],17.8 MFI
same,fluorescence intensity,[24]; [28],17.5 MFI

# A second format for part of the listing above:
binder	measurement	setting	value
4-80.4 (protein) chain 1: QVQLQESGPGLVKPSETLSLTCAVSGGSFSSYWWSWIRQSPGKGLEWIGEISGNSGSTNYNPSLKSRVTISKDASKNQFSLKLSSVTAADTAVYYCARYKEYWGQGVLVTVSS chain 2: DVVMTQSPLSLLITPGQPASISCRSSQSLVHSNGNTYLSWYQQKPGQPPRRLLYEVSNRDSGVPDRFSGSGAGTDFTLKISRVEAEDVGVYYCGQGTHLPYSFGQGTKVEIK	fluorescence intensity	[3]; [29]	24.5 MFI
same	fluorescence intensity	[5]; [30]	20.2 MFI
same	fluorescence intensity	[8]; [29]	29 MFI
same	fluorescence intensity	[14]; [25]	31.5 MFI

# Reference: the supplement of paper PMC11438910
